Laboratory results as given in US20100120858A1, “Piperidine Derivatives” (Pfizer Inc., priority 2006, published 2010).
Some entries share one result that the patent states for a list of compounds.

Tested on: capsaicin-induced mechanical allodynia
Experiment: Capsaicin-induced mechanical allodynia rat model
Assay type: in vivo
Details: rats; 30 mg/kg subcutaneous; PWT 2 hours after the single dose; 'may show activity'
Method: On Day 0, male Sprague-Dawley rats (about 150 g each) in the dark cycle were placed in suspended wire-bottom cages and allowed to acclimate for 0.5 hour in a darkened, quiet room. The Day 0 paw withdrawal threshold (PWT) was determined on the left hind paw by Von Frey hair assessment using the Dixon up and down method. After assessment, the plantar muscle of the right hind paw was injected with 100 μL of capsaicin (0.25% weight/volume (w/v) in 10% ethanol, 10% Tween 80, in sterile saline).
On Day 6, the PWT of the left hind paw (contralateral from the injected paw) was determined for each animal. Animals on Day 6 with PWT≦11.7 g were considered allodynic responders and were regrouped so that the animals in each cage had similar mean PWT values.
On Day 7, the responders were dosed subcutaneously with 10 mg of the test compound per kg of rat body weight in vehicle, or were administered vehicle (10 mL/kg) alone. The vehicle was phosphate buffered saline containing 2% CREMOPHOR® EL (BASF). The contralateral (i.e., left hind paw) PWT values were determined at 1 hour after the single dose, with the investigator blinded to the dosing scheme. For each animal, the Day 6 PWT value was subtracted from the Day 7, 1 hour PWT value for the 10 mg/kg doses of test compound to give a delta PWT value (Delta PWT (drug)), which represents the change in PWT due to the 1 hour drug treatment. In the case of vehicle-alone treated animals, the Day 6 PWT value was subtracted from the Day 7, 1 hour PWT for the 10 mL/kg doses of vehicle and the values averaged (mean Delta PWT (vehicle)). In addition, the Day 6 PWT was subtracted from the Day 0 PWT to give the baseline level (Baseline) of allodynia present in each animal. Percent inhibition of allodynia of each animal, normalized for vehicle controls, was determined using the following formula: […]

| SMILES | inhibition of allodynia (activity) |
| --- | --- |
| COc1ccc(Oc2nc(C)ccc2OC[C@H]2CCCNC2)cc1.O=C(O)/C=C/C(=O)O [Example 6, (S)-2-(4-methoxy-phenoxy)-6-methyl-3-(piperidin-3-ylmethoxy)-pyridine fumaric acid] | greater than 30% |
| Cc1ccc(Oc2nc(C)ccc2OC[C@H]2CCCNC2)cc1.O=C(O)/C=C/C(=O)O [Example 8, (S)-2-(4-methyl-phenoxy)-6-methyl-3-(piperidin-3-ylmethoxy)-pyridine fumaric acid] | greater than 30% |
| Cc1ccc(OC[C@H]2CCCNC2)c(Oc2cc(F)c(F)cc2F)n1.O=C(O)/C=C/C(=O)O [Example 29, (S)-6-methyl-2-(2,4,5-trifluoro-phenoxy)-3-(piperidin-3-ylmethoxy)-pyridine fumaric acid] | greater than 30% |
| Cc1ccc(OC[C@H]2CCCNC2)c(Oc2c(F)cc(F)cc2F)n1.Cl [Example 44, (S)-6-methyl-2-(2,4,6-trifluoro-phenoxy)-3-(piperidin-3-ylmethoxy)-pyridine hydrochloride] | greater than 30% |
